Measurements from article PMC4128046, “Effect of a toggle switch mutation in TM6 of the human adenosine A3 receptor on Gi protein-dependent signalling and Gi-independent receptor internalization” (British Journal of Pharmacology, 2014).
Numbering of substitutions follows the chain as printed. Results are given in words; binding and its absence hold for the method and conditions named. Binding seen in cells or lysates may run through a third protein. Some binding calls cover weakened binding; strength is not graded here. Sequences can lack the tags named with a protein.

Columns and labels:
[1] = biological target: T1, human adenosine A3 receptor W243F (W6.48F) fused to the C-terminal fragment of venus YFP (A3 W243F-vYc) (human) (UniProt P0DMS8); assay: split reporter; live-cell confocal imaging (Zeiss 710) of stable CHO cells co-expressing receptor-vYc and β-arrestin2-vYnL; no agonist (control), or 10 μM NECA or 10 μM HEMADO for 60 min at 37°C, in HBSS
T1 sequence: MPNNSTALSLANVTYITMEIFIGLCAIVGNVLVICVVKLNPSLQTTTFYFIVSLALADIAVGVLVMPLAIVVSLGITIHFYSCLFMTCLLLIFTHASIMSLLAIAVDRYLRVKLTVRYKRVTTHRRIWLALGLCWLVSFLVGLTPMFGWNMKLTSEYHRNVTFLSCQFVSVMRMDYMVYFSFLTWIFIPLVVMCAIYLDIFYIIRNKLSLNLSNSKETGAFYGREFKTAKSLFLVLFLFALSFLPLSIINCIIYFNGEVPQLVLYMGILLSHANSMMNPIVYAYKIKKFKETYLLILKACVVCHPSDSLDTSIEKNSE

[2] = biological target: T2, human adenosine A3 receptor fused to the C-terminal fragment of venus YFP (A3-vYc) (human) (UniProt P0DMS8); assay: as above
T2 sequence: T1 sequence with F243W

binding [1]: binds | binding [2]: binds
Substance: β-arrestin2 fused to the N-terminal fragment of venus YFP (β-arrestin2-vYnL) (from UniProt P32121 1-409)
